Assay results published in article PMC11898665.
Results are given in words; binding and its absence hold for the method and conditions named. Some entries that bind do so weakly or less than the wild type. One block for each binder: values may come before it.

Chains of the proteins cited; added tags and fusions are not shown.
UniProt P17820: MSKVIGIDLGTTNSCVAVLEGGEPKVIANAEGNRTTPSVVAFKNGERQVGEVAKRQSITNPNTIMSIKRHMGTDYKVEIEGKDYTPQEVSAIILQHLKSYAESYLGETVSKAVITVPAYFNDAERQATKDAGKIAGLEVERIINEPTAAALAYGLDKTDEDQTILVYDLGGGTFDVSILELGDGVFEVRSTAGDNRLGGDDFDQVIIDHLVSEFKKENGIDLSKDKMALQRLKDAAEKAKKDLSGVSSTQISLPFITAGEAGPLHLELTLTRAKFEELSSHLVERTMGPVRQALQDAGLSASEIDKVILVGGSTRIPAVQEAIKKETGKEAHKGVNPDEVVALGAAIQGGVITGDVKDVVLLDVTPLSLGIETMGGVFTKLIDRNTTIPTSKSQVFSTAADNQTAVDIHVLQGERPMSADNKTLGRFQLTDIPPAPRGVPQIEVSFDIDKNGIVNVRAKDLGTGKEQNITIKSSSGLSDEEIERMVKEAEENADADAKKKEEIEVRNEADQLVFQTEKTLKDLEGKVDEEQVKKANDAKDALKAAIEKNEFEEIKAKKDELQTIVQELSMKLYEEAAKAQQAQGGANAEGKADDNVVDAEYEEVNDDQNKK

Target: DnaK (B. subtilis) (UniProt P17820)
Experiment: two-hybrid; yeast two-hybrid screen with DnaK as bait; stringent screening conditions (supplemental methods)

- binding: binds
B1: NupG (protein, UniProt P42312 1-397)
chain: MYFLLNLVGLIVIMAVVFLCSPQKKKIKWRPIITLIVLELLITWFMLGTKVGSWAIGKIGDFFTWLIACASDGIAFAFPSVMANETVDFFFSALLPIIFIVTFFDILTYFGILPWLIDKIGWVISKASRLPKLESFFSIQMMFLGNTEALAVIRQQLTVLSNNRLLTFGLMSMSSISGSIIGSYLSMVPATYVFTAIPLNCLNALIIANLLNPVHVPEDEDIIYTPPKEEKKDFFSTISNSMLVGMNMVIVILAMVIGYVALTSAVNGILGVFVHGLTIQTIFAYLFSPFAFLLGLPVHDAMYVAQLMGMKLATNEFVAMLDLKNNLKSLPPHTVAVATTFLTSFANFSTVGMIYGTYNSILDGEKSTVIGRNVWKLLVSGIAVSLLSAAIVGLFVW

- binding: binds
B2: SpoIVCA (protein, UniProt P17867 1-500)
chain: MIAIYVRVSTEEQAIKGSSIDSQIEACIKKAGTKDVLKYADEGFSGELLERPALNRLREDASKGLISQVICYDPDRLSRKLMNQLIIDDELRKRNIPLIFVNGEYANSPEGQLFFAMRGAISEFEKAKIKERTSSGRLQKMKKGMIIKDSKLYGYKFVKEKRTLEILEEEAKIIRMIFNYFTDHKSPFFGRVNGIALHLTQMGVKTKKGAKVWHRQVVRQILMNSSYKGEHRQYKYDTEGSYVSKQAGNKSIIKIRPEEEQITVTIPAIVPAEQWDYAQELLGQSKRKHLSISPHNYLLSGLVRCGKCGNTMTGKKRKSHGKDYYVYTCRKNYSGAKDRGCGKEMSENKLNRHVWGEIFKFITNPQKYVSFKEAEQSNHLSDELELIEKEIEKTKKGRKRLLTLISLSDDDDLDIDEIKAQIIELQKKQNQLTEKCNEIQSKMKVLDDTSSSENALKRAIDYFQSIGADNLTLEDKKTIVNFIVKEVTIVDSDTIYIETY
